Experimental data taken from US5278146A, “CRF analogs” (The Salk Institute for Biological Studies, priority 1992, dated 1994).
“Also recorded” adds a separate entry of the source. At least one peptide structure holds a part that was inferred or is arguable (an end, a ring closure or a residue). Some compounds share one wording; it may come from a single statement. Where a SMILES comes first, the peptide text is derived from it.

How the values were obtained:
[1] = system: cultured rat pituitary cells; test: Secretion of ACTH and β-endorphin by cultured rat pituitary cells; assay type: cell-based; details: for Stimulation of the secretion of ACTH and β-END-LI: general procedure of Example III
Description: The synthetic peptide [D-Glu^20 ]-oCRF is examined for its effects on the secretion of ACTH and β-endorphin vitro and was also in vivo. The potency of synthetic [D-Glu^20 ]-oCRF to stimulate the secretion of ACTH and β-endorphin by cultured rat pituitary cells is measured using the procedure as generally set forth in Endocrinology, 91, 562 (1972) and compared against synthetic oCRF.

[2] = In vivo testing (procedure of C. Rivier et al., Science 218, 377): duration of potency and blood pressure; details: administered peripherally (where stated)
[3] = injected peripherally, e.g. intravenously; cited from earlier work
[4] = in vivo; cited from earlier work
[5] = system: ACTH and β-endorphin-like activities (β-END-LI); details: in vitro and in vivo; cited from earlier work

Compound: CCCC[C@H](NC(=O)[C@@H](CCC(=O)O)NC(=O)[C@H](CC(C)C)NC(=O)[C@@H](NC(=O)[C@H](CCC(=O)O)NC(=O)[C@H](CCCNC(=N)N)NC(=O)[C@H](CC(C)C)NC(=O)[C@H](CC(C)C)NC(=O)[C@H](Cc1c[nH]cn1)NC(=O)[C@H](Cc1ccccc1)NC(=O)[C@@H](NC(=O)[C@H](CC(C)C)NC(=O)[C@H](CC(=O)O)NC(=O)[C@H](CC(C)C)NC(=O)[C@H](CO)NC(=O)[C@@H](NC(=O)[C@@H]1CCCN1C(=O)[C@@H]1CCCN1C(=O)[C@H](CCC(=O)O)NC(=O)[C@H](CCC(N)=O)NC(=O)[C@@H](N)CO)[C@@H](C)CC)[C@@H](C)O)C(C)C)C(=O)N[C@H](C(=O)N[C@@H](CCCCN)C(=O)N[C@@H](C)C(=O)N[C@@H](CC(=O)O)C(=O)N[C@@H](CCC(N)=O)C(=O)N[C@@H](CC(C)C)C(=O)N[C@@H](C)C(=O)N[C@@H](CCC(N)=O)C(=O)N[C@@H](CCC(N)=O)C(=O)N[C@@H](C)C(=O)N[C@@H](Cc1c[nH]cn1)C(=O)N[C@@H](CO)C(=O)N[C@@H](CC(N)=O)C(=O)N[C@@H](CCCNC(=N)N)C(=O)N[C@@H](CCCCN)C(=O)N[C@@](C)(CC(C)C)C(=O)N[C@@H](CC(C)C)C(=O)N[C@@H](CC(=O)O)C(=O)N[C@H](C(=O)N[C@@H](C)C(N)=O)[C@@H](C)CC)[C@@H](C)O [[D-Glu^20, Nle^21, CML^37]-oCRF]
- Stimulation of the secretion of ACTH and β-END-LI [1]: stimulates the secretion of ACTH and β-END-LI
- Lowering of blood pressure [2]: very significant lowering of blood pressure

Compound: CCCC[C@H](NC(=O)[C@H](CCC(=O)O)NC(=O)[C@H](CC(C)C)NC(=O)[C@H](CCCC)NC(=O)[C@H](CCC(=O)O)NC(=O)[C@H](CCCNC(=N)N)NC(=O)[C@H](CC(C)C)NC(=O)[C@H](CC(C)C)NC(=O)[C@H](Cc1c[nH]cn1)NC(=O)[C@@H](Cc1ccccc1)NC(=O)[C@@H](NC(=O)[C@H](CC(C)C)NC(=O)[C@H](CC(=O)O)NC(=O)[C@H](CC(C)C)NC(=O)[C@H](CO)NC(=O)[C@@H](NC(=O)[C@@H]1CCCN1C(=O)[C@H]1CCCN1)[C@@H](C)CC)[C@@H](C)O)C(=O)N[C@@H](C)C(=O)N[C@@H](CCCNC(=N)N)C(=O)N[C@@H](C)C(=O)N[C@@H](CCC(=O)O)C(=O)N[C@@H](CCC(N)=O)C(=O)N[C@@H](CC(C)C)C(=O)N[C@@H](C)C(=O)N[C@@H](CCC(N)=O)C(=O)N[C@@H](CCC(N)=O)C(=O)N[C@@H](C)C(=O)N[C@@H](Cc1c[nH]cn1)C(=O)N[C@@H](CO)C(=O)N[C@@H](CC(N)=O)C(=O)N[C@@H](CCCNC(=N)N)C(=O)N[C@@H](CCCCN)C(=O)N[C@@](C)(CC(C)C)C(=O)N[C@@H](CCCC)C(=O)N[C@@H](CCC(=O)O)C(=O)N[C@H](C(=O)N[C@H](C(N)=O)[C@@H](C)CC)[C@@H](C)CC (HELM PEPTIDE1{[dP].P.I.S.L.D.L.T.[dF].H.L.L.R.E.[Nle].L.E.[Nle].A.R.A.E.Q.L.A.Q.Q.A.H.S.N.R.K.[CC(C)C[C@](C)(N[*:1])C(=O)[*:2]].[Nle].E.I.I.[am]}$$$$V2.0)
- Stimulation of the secretion of ACTH and β-END-LI [1]: stimulates the secretion of ACTH and β-END-LI
- Lowering of blood pressure [2]: very significant lowering of blood pressure

Compound: CC[C@H](C)[C@H](NC(=O)[C@H](CC(=O)O)NC(=O)[C@H](CC(C)C)NC(=O)[C@H](CC(C)C)NC(=O)[C@H](CCCCN)NC(=O)[C@H](CCCNC(=N)N)NC(=O)[C@H](CC(N)=O)NC(=O)[C@H](CO)NC(=O)[C@H](Cc1c[nH]cn1)NC(=O)[C@H](C)NC(=O)[C@H](CCC(N)=O)NC(=O)[C@H](CCC(N)=O)NC(=O)[C@H](C)NC(=O)[C@H](CC(C)C)NC(=O)[C@H](CCC(N)=O)NC(=O)[C@H](CC(=O)O)NC(=O)[C@H](C)NC(=O)[C@H](CCCCN)NC(=O)[C@@H](NC(=O)[C@H](CCSC)NC(=O)[C@H](CCC(=O)O)NC(=O)[C@H](CC(C)C)NC(=O)[C@@H](NC(=O)[C@H](CCC(=O)O)NC(=O)[C@H](CCCNC(=N)N)NC(=O)[C@H](CC(C)C)NC(=O)[C@H](CC(C)C)NC(=O)[C@H](Cc1c[nH]cn1)NC(=O)[C@H](Cc1ccccc1)NC(=O)[C@@H](NC(=O)[C@H](CC(C)C)NC(=O)[C@H](CC(=O)O)NC(=O)[C@H](CC(C)C)NC(=O)[C@H](CO)NC(=O)[C@@H](NC(=O)[C@@H]1CCCN1C(=O)[C@@H]1CCCN1C(=O)[C@H](CCC(=O)O)NC(=O)[C@H](CCC(N)=O)NC(=O)[C@@H](N)CO)[C@@H](C)CC)[C@@H](C)O)C(C)C)[C@@H](C)O)C(=O)N[C@@H](C)C(N)=O [oCRF]
- Lowering of blood pressure (background) [3]: lowers blood pressure; also recorded: substantially lower blood pressure
- Gastric acid production (background) [4]: inhibits gastric acid production
- EC50 ([1]; cultured rat pituitary cells, read-out: Concentration at which half-maximal responses are observed (ACTH and β-endorphin secretion)): ~0.25 nM
- Stimulation of ACTH and β-endorphin secretion / β-END-LI (background) [5]: stimulates the secretion of ACTH and β-endorphin; also recorded: stimulate ACTH and β-endorphin-like activities
